Here are results for 38 molecules from the supplement of paper PMC6331611.

± gives the standard deviation of the averaged measurements. Whole data set: some 1,600 compounds, median “normalized intracellular growth (luminescence, IQM-normalized) in RAW264.7 macrophages” near 1, cut for the lowest 2% near 0.43. Some of the results follow.

For this assay, the system named is Salmonella enterica serovar Typhimurium SL1344. Briefly: normalized intracellular growth (luminescence, IQM-normalized) in RAW264.7 macrophages (fraction of plate interquartile mean); higher = more bacterial growth (less inhibition). The conditions noted are these: 10 µM.

Regarding `O=NN(CCCl)C(=O)NCCCl`, the normalized intracellular growth reads like this: (time point: T3 (3 h)) 1.02 ± 0.043; (time point: Tfinal (~6 h)) 1.03 ± 0.013.

On to `CCCC1O[C@@H]2C[C@H]3[C@@H]4CCC5=CC(=O)C=C[C@]5(C)[C@H]4[C@@H](O)C[C@]3(C)[C@]2(C(=O)CO)O1` (stereo partly specified), for which the normalized intracellular growth was found to be 0.978 ± 0.021 (time point: T3 (3 h)) and 1.03 ± 0.073 (time point: Tfinal (~6 h)).

`Nc1nc2c(ncn2COCCO)c(=O)[nH]1`: the normalized intracellular growth (time point: T3 (3 h)) was found to be 0.941 ± 0.06 and the normalized intracellular growth (time point: Tfinal (~6 h)) stood at 1.24 ± 0.18.

On to `CC(C)NCC(O)c1ccc(O)c(O)c1` (stereo unspecified), for which the normalized intracellular growth amounted to 0.968 ± 0.041 (time point: T3 (3 h)) and 1.08 ± 0.073 (time point: Tfinal (~6 h)).

Consider `COc1ccc2[nH]c([S@@+]([O-])Cc3ncc(C)c(OC)c3C)nc2c1`, for which the normalized intracellular growth worked out at 0.975 ± 0.073 (time point: T3 (3 h)) and 0.983 ± 0.24 (time point: Tfinal (~6 h)).

On to `CCCCCN(CCCCC)C(=O)C(CCC(=O)O)NC(=O)c1ccc(Cl)c(Cl)c1` (stereo unspecified), for which the normalized intracellular growth (time point: T3 (3 h)) was found to be 0.982 ± 0.039 and the normalized intracellular growth (time point: Tfinal (~6 h)) was 0.835 ± 0.084.

As to `COc1c(N2C[C@@H]3CCCN[C@@H]3C2)c(F)cc2c(=O)c(C(=O)O)cn(C3CC3)c12`, the normalized intracellular growth (time point: T3 (3 h)) is 1.41 ± 0.1 and the normalized intracellular growth (time point: Tfinal (~6 h)) amounted to 0.00827 ± 0.001.

`COc1ccc(C(=O)c2ccccc2)c(O)c1`: the normalized intracellular growth was 0.948 ± 0.07 (time point: T3 (3 h)) and 0.417 ± 0.083 (time point: Tfinal (~6 h)).

With `CC(=O)OCC(=O)[C@@]1(O)[C@H](C)C[C@H]2[C@@H]3CCC4=CC(=O)C=C[C@]4(C)[C@@]3(F)[C@@H](O)C[C@@]21C`, the normalized intracellular growth by setting is: (time point: T3 (3 h)) 1 ± 0.028; (time point: Tfinal (~6 h)) 1 ± 0.037.

As to `COc1ncnc(NS(=O)(=O)c2ccc(N)cc2)c1OC`, the normalized intracellular growth by setting is: (time point: T3 (3 h)) 1.07 ± 0.098; (time point: Tfinal (~6 h)) 1.13 ± 0.12.

Molecule `COc1ccc(C(=O)CC(=O)c2ccc(C(C)(C)C)cc2)cc1` displayed a normalized intracellular growth (time point: T3 (3 h)) of 1.07 ± 0.024 and a normalized intracellular growth (time point: Tfinal (~6 h)) of 1.2 ± 0.13.

The molecule `CCOc1cc(CC(=O)N[C@@H](CC(C)C)c2ccccc2N2CCCCC2)ccc1C(=O)O` came in with a normalized intracellular growth (time point: T3 (3 h)) of 1.01 ± 0.055 and a normalized intracellular growth (time point: Tfinal (~6 h)) of 1.15 ± 0.15.

`C#C[C@]1(O)CC[C@H]2[C@@H]3CCc4cc(O)ccc4[C@H]3CC[C@@]21C`: the normalized intracellular growth is, setting by setting: (time point: T3 (3 h)) 0.975 ± 0.065; (time point: Tfinal (~6 h)) 0.9533 ± 0.0089.

Take `CCc1cc(C(N)=S)ccn1`: the normalized intracellular growth was determined as 0.905 ± 0.053 (time point: T3 (3 h)) and 0.98 ± 0.051 (time point: Tfinal (~6 h)).

The molecule `CC(=O)Nc1c(I)c(NC(C)=O)c(I)c(C(=O)O)c1I` displayed a normalized intracellular growth (time point: T3 (3 h)) of 1.01 ± 0.065 and a normalized intracellular growth (time point: Tfinal (~6 h)) of 1.14 ± 0.16.

Take `Cc1ccc(C(=O)Nc2ccc(S(=O)(=O)O)c3cc(S(=O)(=O)O)cc(S(=O)(=O)O)c23)cc1NC(=O)c1cccc(NC(=O)Nc2cccc(C(=O)Nc3cc(C(=O)Nc4ccc(S(=O)(=O)O)c5cc(S(=O)(=O)O)cc(S(=O)(=O)O)c45)ccc3C)c2)c1`: the normalized intracellular growth stood at 1.09 ± 0.048 (time point: T3 (3 h)) and 1.1 ± 0.18 (time point: Tfinal (~6 h)).

With `CC(=O)Nc1ccc(S(=O)(=O)Nc2ccc([N+](=O)[O-])cc2)cc1`, the normalized intracellular growth came out at 0.992 ± 0.038 (time point: T3 (3 h)) and 1.03 ± 0.15 (time point: Tfinal (~6 h)).

For `O=C(N/N=C/c1ccc([N+](=O)[O-])o1)c1ccc(O)cc1`, the normalized intracellular growth (time point: T3 (3 h)) is 1.01 ± 0.017 and the normalized intracellular growth (time point: Tfinal (~6 h)) stood at 1.02 ± 0.093.

Regarding `CN1CCN(C(c2ccccc2)c2ccc(Cl)cc2)CC1` (stereo unspecified), the normalized intracellular growth amounted to 1.07 ± 0.063 (time point: T3 (3 h)) and 1.08 ± 0.17 (time point: Tfinal (~6 h)).

For `CC(C)(O/N=C(\C(=O)N[C@@H]1C(=O)N2C(C(=O)[O-])=C(C[n+]3ccccc3)CS[C@H]12)c1csc(N)n1)C(=O)O`, the normalized intracellular growth (time point: T3 (3 h)) came out at 0.997 ± 0.078 and the normalized intracellular growth (time point: Tfinal (~6 h)) turned out to be 0.806 ± 0.12.

`C[C@H]1[C@H](NC(=O)/C(=N\OC(C)(C)C(=O)O)c2csc(N)n2)C(=O)N1S(=O)(=O)O`: the normalized intracellular growth is 0.992 ± 0.04 (time point: T3 (3 h)) and 0.2 ± 0.016 (time point: Tfinal (~6 h)).

Turning to `CNCCC=C1c2ccccc2CCc2ccccc21`, the normalized intracellular growth was 0.97 ± 0.018 (time point: T3 (3 h)) and 1.23 ± 0.041 (time point: Tfinal (~6 h)).

In the case of `CCc1c2c(nc3ccc(OC(=O)N4CCC(N5CCCCC5)CC4)cc13)-c1cc3c(c(=O)n1C2)COC(=O)[C@]3(O)CC`, the normalized intracellular growth stood at 0.989 ± 0.048 (time point: T3 (3 h)) and 0.918 ± 0.11 (time point: Tfinal (~6 h)).

For `CCn1cc(C(=O)O)c(=O)c2cc(F)c(N3CCNC(C)C3)c(F)c21` (stereo unspecified), the normalized intracellular growth runs as follows: (time point: T3 (3 h)) 0.996 ± 0.098; (time point: Tfinal (~6 h)) 0.0187 ± 0.0027.

Turning to `CS(=O)(=O)Nc1ccc([N+](=O)[O-])cc1Oc1ccccc1`, the normalized intracellular growth is, setting by setting: (time point: T3 (3 h)) 1.01 ± 0.011; (time point: Tfinal (~6 h)) 1.1 ± 0.28.

For `CCC1=C[C@@H]2CN(C1)Cc1c([nH]c3ccccc13)[C@@](C(=O)OC)(c1cc3c(cc1OC)N(C)[C@H]1[C@@](O)(C(=O)OC)[C@H](OC(C)=O)[C@]4(CC)C=CCN5CC[C@]31[C@@H]54)C2`, the normalized intracellular growth reads like this: (time point: T3 (3 h)) 0.878 ± 0.014; (time point: Tfinal (~6 h)) 0.7961 ± 0.0029.

`OCc1ccccc1`: the normalized intracellular growth came to 0.996 ± 0.016 (time point: T3 (3 h)) and 0.959 ± 0.14 (time point: Tfinal (~6 h)).

`CNC(=C[N+](=O)[O-])NCCSCc1csc(CN(C)C)n1`: the normalized intracellular growth was found to be 0.995 ± 0.046 (time point: T3 (3 h)) and 1 ± 0.053 (time point: Tfinal (~6 h)).

As for `C[C@]12C=CC(=O)C=C1CC[C@@H]1[C@@H]2C(=O)C[C@@]2(C)[C@H]1CC[C@]2(O)C(=O)CO`, the normalized intracellular growth by setting is: (time point: T3 (3 h)) 0.817 ± 0.19; (time point: Tfinal (~6 h)) 0.833 ± 0.057.

Regarding `CCOC(=O)CCC(=O)O[C@H]1[C@H](O[C@@H]2[C@@H](C)[C@H](O[C@H]3C[C@@](C)(OC)[C@@H](O)[C@H](C)O3)[C@@H](C)C(=O)O[C@H](CC)[C@@](C)(O)[C@H](O)[C@@H](C)C(=O)[C@H](C)C[C@@]2(C)O)O[C@H](C)C[C@@H]1N(C)C`, the normalized intracellular growth is, setting by setting: (time point: T3 (3 h)) 1 ± 0.088; (time point: Tfinal (~6 h)) 1.21 ± 0.14.

In turn, `Cc1ccc(S(=O)(=O)NCl)cc1` returned a normalized intracellular growth (time point: T3 (3 h)) of 0.946 ± 0.021 and a normalized intracellular growth (time point: Tfinal (~6 h)) of 0.902 ± 0.052.

With `C[C@@H]1CN(c2c(F)c(N)c3c(=O)c(C(=O)O)cn(C4CC4)c3c2F)C[C@H](C)N1`, the normalized intracellular growth reads like this: (time point: T3 (3 h)) 1.08 ± 0.037; (time point: Tfinal (~6 h)) 0.0132 ± 0.002.

Turning to `C[C@@H]1O[C@@H]1P(=O)(O)O`, the normalized intracellular growth (time point: T3 (3 h)) worked out at 0.967 ± 0.11 and the normalized intracellular growth (time point: Tfinal (~6 h)) stood at 1.04 ± 0.064.

Turning to `CCn1cc(C(=O)O)c(=O)c2cc(F)c(N3CCN(C)CC3)cc21`, the normalized intracellular growth worked out at 1.11 ± 0.11 (time point: T3 (3 h)) and 0.012 ± 0.0031 (time point: Tfinal (~6 h)).

For `Nc1ncnc2c1ncn2[C@@H]1O[C@H](COP(=O)(O)O)[C@@H](O)[C@H]1O`, the normalized intracellular growth by setting is: (time point: T3 (3 h)) 0.935 ± 0.025; (time point: Tfinal (~6 h)) 0.954 ± 0.03.

With `CCC(=O)O[C@H]1[C@H](O[C@@H]2[C@@H](C)[C@H](O[C@H]3C[C@@](C)(OC)[C@@H](O)[C@H](C)O3)[C@@H](C)C(=O)O[C@H](CC)[C@@](C)(O)[C@H](O)[C@@H](C)C(=O)[C@H](C)C[C@@]2(C)O)O[C@H](C)C[C@@H]1N(C)C`, the normalized intracellular growth by setting is: (time point: T3 (3 h)) 0.792 ± 0.092; (time point: Tfinal (~6 h)) 0.901 ± 0.065.

For the molecule `CC(=O)Oc1cc(C(C)C)c(OCCN(C)C)cc1C`, the normalized intracellular growth stood at 1.03 ± 0.017 (time point: T3 (3 h)) and 1.09 ± 0.015 (time point: Tfinal (~6 h)).

The molecule `O=C(O)c1cc(O)c2c(c1)[C@H]([C@H]1c3cc(C(=O)O)cc(O)c3C(=O)c3c(O[C@@H]4O[C@H](CO)[C@@H](O)[C@H](O)[C@H]4O)cccc31)c1cccc(O[C@@H]3O[C@H](CO)[C@@H](O)[C@H](O)[C@H]3O)c1C2=O` gave a normalized intracellular growth (time point: T3 (3 h)) of 0.957 ± 0.08 and a normalized intracellular growth (time point: Tfinal (~6 h)) of 0.961 ± 0.026.
